Data published in article PMC5995852.

How the values were obtained:
GST-RIM1_(1-399) = target: T1, GST-RIM1_(1-399) (UniProt Q9JIR4); assay: pull-down; GST fusion proteins immobilized on glutathione beads, incubated with solubilized brain proteins in the presence of GTP-γS; immunoblot; only the target purified
T1 sequence: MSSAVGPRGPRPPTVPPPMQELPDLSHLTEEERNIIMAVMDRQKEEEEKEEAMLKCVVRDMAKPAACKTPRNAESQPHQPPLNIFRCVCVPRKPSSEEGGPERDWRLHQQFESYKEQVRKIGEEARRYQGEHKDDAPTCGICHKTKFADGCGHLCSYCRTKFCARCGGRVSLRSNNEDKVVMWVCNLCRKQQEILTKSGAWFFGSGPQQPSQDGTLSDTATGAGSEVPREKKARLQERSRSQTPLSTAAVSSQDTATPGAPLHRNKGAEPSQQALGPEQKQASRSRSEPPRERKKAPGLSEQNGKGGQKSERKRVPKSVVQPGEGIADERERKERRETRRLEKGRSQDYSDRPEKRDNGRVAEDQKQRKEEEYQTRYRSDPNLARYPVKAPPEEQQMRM

GST-RIM1_(1-55) = target: T2, GST-RIM1_(1-55) (UniProt Q9JIR4); assay: as above
T2 sequence: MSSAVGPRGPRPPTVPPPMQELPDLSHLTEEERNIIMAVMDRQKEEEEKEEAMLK

For Rab5, the binding (GST-RIM1_(1-399)) was “no binding” and the binding (GST-RIM1_(1-55)) was “no binding”.

These are yes or no findings as the source states them, for the method shown. Binding seen in cells or lysates may run through a third protein. Tags and fused reporters may be left off the sequences shown.
